# Reference: PubChem BioAssay AID1259308 (NCATS, 2017)
# Screen: 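Genes whose loss raises luciferase production in HEK293 cells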 (primary screen)
# Cell system: human HEK293 embryonic kidney cells stably expressing firefly luciferase (HEK-CMV-Luc2-Hygro)
# Reagents: single siRNA against human genes, 0.8 pmol siRNA per well
# Timing: 72 h
# Read-out: 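Reporter luminescence and viable-cell signal on separate replicate plates, given as percent of non-targeting control and median/MAD z-scores, plus per-cell luciferase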
# Scale: total luciferase, z-score and total luciferase, % of control: higher = more reporter protein produced; luciferase per cell, z-score: higher = more reporter output per viable cell; viable cells, % of control: higher = more viable cells
# Active means: 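An siRNA counts as active if its total luciferase robust z-score exceeds 3; genes with two or more such siRNAs out of three were retested with fresh siRNAs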
# Meaning of the calls: active = raised luciferase; inactive = no rise
# Shown is a random part of about 59,000 deposited reagents. About 1,510 of them (2.6%) count as active. 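Calls use total luciferase alone and ignore viability, so some active siRNAs may act by altering cell number.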 Entries without a mark were called inactive. The numbers tell different reagents against one gene apart. Reagent sequences are not shown.
gene,reagent,"total luciferase, z-score","total luciferase, % of control","luciferase per cell, z-score","viable cells, % of control"
THADA (GeneID 63892),1,0.218,86.2,-0.627,114
THADA (GeneID 63892),2,-0.361,74.7,-0.331,91.1
THADA (GeneID 63892),3,-0.742,67.1,-0.843,93.7
REC114 (GeneID 283677),1,-0.259,76.7,-0.268,92
REC114 (GeneID 283677),2,-0.511,71.7,-0.0882,82
REC114 (GeneID 283677),3,-1.1,60.1,-0.851,84
KRTAP5-10 (GeneID 387273),1,-0.417,73.6,0.488,72.3
KRTAP5-10 (GeneID 387273),2,1.42,110,3.22,52.7
KRTAP5-10 (GeneID 387273),3,0.411,90.1,-0.0361,102
ANAPC4 (GeneID 29945),1,-1.71,47.9,-0.805,66.1
ANAPC4 (GeneID 29945),2,-0.44,73.1,-0.695,98.1
ANAPC4 (GeneID 29945),3,-0.469,72.6,-0.338,88.6
BMERB1 (GeneID 89927),1,0.0119,82.1,0.18,87.5
BMERB1 (GeneID 89927),2,0.0775,83.4,0.0565,91.8
BMERB1 (GeneID 89927),3,-2.08,40.6,-1.6,69
MESD (GeneID 23184),1,-0.343,75.1,0.366,76.2
MESD (GeneID 23184),2,0.516,92.1,0.395,92.8
MESD (GeneID 23184),3,-1.97,42.7,-1.03,62.5
NSUN6 (GeneID 221078),1,-0.718,67.6,-1.41,109
NSUN6 (GeneID 221078),2,-0.716,67.6,-0.634,89.3
NSUN6 (GeneID 221078),3,-0.177,78.4,-0.344,95.9
RPS5 (GeneID 6193),1,-2.12,39.7,-1.27,61.9
RPS5 (GeneID 6193),2,-2.88,24.6,-2.12,47.9
RPS5 (GeneID 6193),3,-3.5,12.4,-6.18,70.2
LRRC31 (GeneID 79782),1,0.205,86,-0.0681,97.8
LRRC31 (GeneID 79782),2,0.552,92.9,0.877,82.4
LRRC31 (GeneID 79782),3,1.88,119,1.78,83.4

Next part; the last 8 above are carried over.
gene,reagent,"total luciferase, z-score","total luciferase, % of control","luciferase per cell, z-score","viable cells, % of control"
NSUN6 (GeneID 221078),2,-0.716,67.6,-0.634,89.3
NSUN6 (GeneID 221078),3,-0.177,78.4,-0.344,95.9
RPS5 (GeneID 6193),1,-2.12,39.7,-1.27,61.9
RPS5 (GeneID 6193),2,-2.88,24.6,-2.12,47.9
RPS5 (GeneID 6193),3,-3.5,12.4,-6.18,70.2
LRRC31 (GeneID 79782),1,0.205,86,-0.0681,97.8
LRRC31 (GeneID 79782),2,0.552,92.9,0.877,82.4
LRRC31 (GeneID 79782),3,1.88,119,1.78,83.4
NXF3 (GeneID 56000),1,-0.0322,81.2,-0.126,93.8
NXF3 (GeneID 56000),2,0.521,92.2,0.241,96.7
NXF3 (GeneID 56000),3,-1.02,61.7,-1,89.8
OR6N2 (GeneID 81442),1,0.175,85.4,0.188,90.8
OR6N2 (GeneID 81442),2,0.935,100,0.403,101
OR6N2 (GeneID 81442),3,-2.19,38.3,-1.89,70.5
ADAMTS6 (GeneID 11174),1,1.97,121,1.23,97.9
ADAMTS6 (GeneID 11174),2,0.502,91.9,0.323,94.3
ADAMTS6 (GeneID 11174),3,0.207,86,-0.453,108
ZNF843 (GeneID 283933),1,0.235,86.6,-0.317,105
ZNF843 (GeneID 283933),2,2.98,141,1.47,107
ZNF843 (GeneID 283933),3,-1.53,51.5,-0.941,73.7
GPR61 (GeneID 83873),1,-0.14,79.1,-0.472,100
GPR61 (GeneID 83873),2,0.135,84.6,-0.207,99.8
GPR61 (GeneID 83873),3,-0.395,74,-1.23,114
PRAC1 (GeneID 84366),1,0.0617,83.1,0.153,89.2
PRAC1 (GeneID 84366),2,-1.09,60.2,-1.22,92.7
PRAC1 (GeneID 84366),3,-0.654,68.9,-0.198,81.1
GRM5P1 (GeneID 440040),1,-0.206,77.8,-0.354,95.4
GRM5P1 (GeneID 440040),2,-0.0379,81.1,0.117,87.9
GRM5P1 (GeneID 440040),3,2.03,122,1.64,88.7
ANAPC1P2 (GeneID 285074),1,-1.4,54,-0.138,62.6
ANAPC1P2 (GeneID 285074),2,-0.311,75.7,-0.106,87
ANAPC1P2 (GeneID 285074),3,-1.85,45,-0.148,52.3
BAMBI (GeneID 25805),1,0.103,83.9,1.1,70.2
BAMBI (GeneID 25805),2,-0.183,78.2,-0.771,107
BAMBI (GeneID 25805),3,-0.1,79.9,-0.428,99.9
EXOC4 (GeneID 60412),1,0.113,84.1,-0.501,107
EXOC4 (GeneID 60412),2,0.393,89.7,-0.122,104
EXOC4 (GeneID 60412),3,-0.906,63.9,-0.351,78.3
BBLN (GeneID 79095),1,0.118,84.2,-0.297,102
BBLN (GeneID 79095),2,-0.306,75.8,-0.0333,85.4
BBLN (GeneID 79095),3,-1.36,54.8,-1.62,93.8
PON2 (GeneID 5445),1,1.03,102,0.337,105
PON2 (GeneID 5445),2,-0.171,78.5,-0.614,103
PON2 (GeneID 5445),3,-0.865,64.7,-0.701,86.9
ATR (GeneID 545),1,-0.25,76.9,-0.227,91.3
ATR (GeneID 545),2,-0.675,68.5,-0.536,88.1
ATR (GeneID 545),3,0.164,85.2,0.647,80.3
BLOC1S1 (GeneID 2647),1,-0.488,72.2,-0.506,92.1
BLOC1S1 (GeneID 2647),2,2.41,130,2.94,66.9
BLOC1S1 (GeneID 2647),3,0.67,95.2,-0.331,116
ZNF208 (GeneID 7757),1,-0.414,73.7,-0.134,85.3
ZNF208 (GeneID 7757),2,0.685,95.5,0.738,87.9
ZNF208 (GeneID 7757),3,0.488,91.6,0.396,92.2
CDKAL1 (GeneID 54901),1,-0.483,72.3,-0.519,92.6
CDKAL1 (GeneID 54901),2,0.11,84.1,-0.0854,96.1
CDKAL1 (GeneID 54901),3,1.72,116,0.869,103
